Among all 390,000 compounds or so, about 4,000 (1%) were called active. The inconclusive results got no clear call from the source; some entries with a clear call stand among them for comparison. Calls come from the whole dose curve; as a rule, active = well fitted inhibition curve with a large enough effect; inconclusive = small, poorly fitted or top-dose-only effect, or another doubt; inactive = no such curve, though single readings can be large or run the other way. A potency beside an inconclusive call is a rough fit, not a confirmed value.
Each compound was assayed against DNA polymerase iota (Homo sapiens) (UniProt Q9UNA4) (assay: qHTS for Inhibitors of Polymerase Iota). Details: Pol iota fluorescent replication assay, 10 min; series mostly up to 115 µM; activity, negative = inhibition: at the top concentration.
Summary of the method: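 Pol iota at 10 nM preincubated 15 min with compounds at room temperature; reaction started with fluorescent substrate, 50 nM final. Fluorescence read kinetically at 0 and 10 min; buffer-only wells as negative control.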
Potency is the fitted concentration of half-maximal effect.

Protein sequences, listed by entry. Tags and fused reporters are not part of them. Lines headed by an entry give the natural chain unless they say otherwise; changes in a name come on top.
UniProt Q9UNA4: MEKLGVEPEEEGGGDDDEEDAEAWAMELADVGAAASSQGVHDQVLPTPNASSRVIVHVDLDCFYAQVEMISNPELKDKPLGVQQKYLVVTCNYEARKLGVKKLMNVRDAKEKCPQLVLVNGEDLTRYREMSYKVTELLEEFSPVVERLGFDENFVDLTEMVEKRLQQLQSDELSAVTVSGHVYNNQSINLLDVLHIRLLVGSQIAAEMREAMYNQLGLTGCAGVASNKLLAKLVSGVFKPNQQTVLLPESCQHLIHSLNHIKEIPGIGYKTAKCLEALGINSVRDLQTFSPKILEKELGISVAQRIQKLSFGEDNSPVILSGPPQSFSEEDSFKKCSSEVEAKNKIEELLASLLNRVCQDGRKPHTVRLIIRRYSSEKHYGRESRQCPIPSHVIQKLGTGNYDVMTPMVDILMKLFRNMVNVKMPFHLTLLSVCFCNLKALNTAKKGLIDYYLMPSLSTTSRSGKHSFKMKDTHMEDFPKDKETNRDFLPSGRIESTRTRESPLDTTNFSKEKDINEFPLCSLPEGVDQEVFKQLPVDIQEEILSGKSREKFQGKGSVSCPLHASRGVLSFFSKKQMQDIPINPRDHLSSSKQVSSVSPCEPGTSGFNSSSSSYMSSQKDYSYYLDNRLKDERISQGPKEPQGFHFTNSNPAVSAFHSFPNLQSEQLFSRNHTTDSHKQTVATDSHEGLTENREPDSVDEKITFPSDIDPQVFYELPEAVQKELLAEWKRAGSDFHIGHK

Potency, active:
CCOC(=O)NC1(NC2CCCCC2)Oc2ccccc2O1 70.8 µM, Cc1ccc(NC(=O)COC(=O)c2ccc3c(c2)NC(=O)C2CCCN32)cc1 (stereo not drawn) 7.94 µM, O=C(O)c1ccc(S(=O)(=O)c2ccc([N+](=O)[O-])cc2[N+](=O)[O-])cc1 1.12 µM

Potency, inconclusive:
NC1=NOC(=O)C1C1CCCCC1 (stereo not drawn) 28.2 µM [inhibitor, partial curve, poor fit], CCCCN1C(=O)C(=O)c2cc(Cl)ccc21 22.4 µM [inhibitor, single point], CCOc1ccc(-c2noc(CSc3nnc(Cc4ccccc4)n3-c3cccc(C)c3)n2)cc1 89.1 µM [inhibitor, single point], COc1ccc(CCNC(=O)Cn2cc(C(=O)c3ccc(F)cc3)c(=O)c3ccc(C)nc32)cc1OC 89.1 µM [inhibitor, single point], COc1ccc([C@@H]2CC(=O)c3c(O)cc(O[C@@H]4O[C@H](CO[C@@H]5O[C@@H](C)[C@H](O)[C@@H](O)[C@H]5O)[C@@H](O)[C@H](O)[C@H]4O)cc3O2)cc1O 79.4 µM [inhibitor, partial curve, poor fit], Cc1cccc(/C=C2\CCC(=C3SCCCS3)C2=O)c1 7.94 µM [inhibitor, partial curve, poor fit], Cc1ccc(CCN2CCN=C2Nc2ccccc2)cc1 20 µM [inhibitor, partial curve, poor fit], Clc1ccc(C2[C@H]3CN(CC4CCCCC4)[C@H](c4ccccc4)C34CC2(c2cccnc2)C4)cn1 (stereo partly drawn) 39.8 µM [inhibitor, single point], COc1ccccc1NC(=O)COC(=O)c1ccc(S(=O)(=O)NCc2ccco2)cc1 15.8 µM [inhibitor, full curve, poor fit], CCOc1cc2[nH]c(=S)n(CCCC(=O)NCc3ccco3)c(=O)c2cc1OCC 112 µM [inhibitor, single point], COc1cc2c(cc1OC)C(COc1ccc3c(C)cc(=O)oc3c1)N(C(=O)CC(C)C)CC2 (stereo not drawn) 89.1 µM [inhibitor, single point], COc1ccc2c(c1)OC13CCN(C)CC1C2C(C(=O)c1ccc(F)cc1)C(=O)N3 (stereo not drawn) 63.1 µM [inhibitor, partial curve, poor fit], O=C(CN1C(=O)COc2ccccc21)NCCCN1CCCC1 14.1 µM [inhibitor, partial curve, poor fit], CCOc1ccc(NC(=O)c2c(NC(=O)c3cccs3)sc3c2CCC(C(C)(C)C)C3)cc1 (stereo not drawn) 89.1 µM [inhibitor, single point], COc1cccc(C=N[C@@H](CO)[C@@H](O)c2ccc([N+](=O)[O-])cc2)c1O 1.26 µM [inhibitor, partial curve, poor fit], Cc1nc(-c2ccccc2)cn(O)c1=O 39.8 µM [inhibitor, single point], CCCCOc1ccc(-c2nnn(CC(=O)NCc3ccco3)n2)cc1 100 µM [inhibitor, partial curve, poor fit], Cc1cc(C)nc(SCc2nnc(SCC(=O)NCc3ccco3)n2-c2ccccc2)n1 56.2 µM [inhibitor, partial curve, poor fit], Cc1csc(=O)n1CCC(=O)OCC(=O)Nc1ncc(Cl)cc1Cl 15.8 µM [inhibitor, full curve, poor fit], OCC1CCCN(Cc2ccc(-c3ccccc3)cc2)C1 (stereo not drawn) 89.1 µM [inhibitor, partial curve], CC(C)C1N=C(c2ccc3c(c2)OCO3)CC(c2ccccc2O)N1 (stereo not drawn) 10 µM [inhibitor, full curve, poor fit], Cc1cccc(C)c1NC(=O)CN(C)C(=O)c1ccccc1SCC(=O)N1CCCC1 3.16 µM [inhibitor, partial curve, poor fit], O=C(NCc1ccccc1Cl)c1cc2cccc3c2n1CCS3 100 µM [inhibitor, partial curve, poor fit], CC(C)CC(C(=O)Nc1oc(-c2ccco2)c(-c2ccco2)c1C#N)N1C(=O)c2ccccc2C1=O (stereo not drawn) 10 µM [inhibitor, partial curve, poor fit], COc1ccc(C2(c3ccc(OC)cc3)NC(=O)N(CC(=O)Nc3ccc(N4CCOCC4)cc3)C2=O)cc1 63.1 µM [inhibitor, partial curve, poor fit], Cc1ccc(-c2cc(=O)[nH][nH]2)c(C)c1 3.16 µM [inhibitor, full curve, poor fit], FC(F)(F)c1cnc(Oc2cccc3ccccc23)c(Cl)c1 89.1 µM [inhibitor, single point], CC(C)(C)CC(C)(C)SSc1n[nH]c(=S)s1 28.2 µM [inhibitor, single point], COc1ccc2[nH]c(O)c(N=NC(=O)Cc3cccs3)c2c1 22.4 µM [inhibitor, full curve, poor fit], Cc1ccccc1NC(=S)NC(=O)/C=C/c1ccco1 10 µM [inhibitor, full curve, poor fit], Cc1cccc(NC(=O)CN2CCN(C(=O)c3ccc(-c4nc5ccccc5s4)o3)CC2)c1C 8.91 µM [inhibitor, partial curve, poor fit], Cc1ccc(S(=O)(=O)N2CCC(n3c(C)nc4cccnc43)CC2)c(C)c1 89.1 µM [inhibitor, single point], CC1=C/C(=C/N(C)c2ccccc2)C(=O)S1 25.1 µM [inhibitor, partial curve, poor fit], O=C(CSc1ccc(-c2ccco2)nn1)Nc1ccccc1F 39.8 µM [inhibitor, partial curve, poor fit], Cc1ccc(C2C(C#N)=C(N)Oc3nc(-c4ccccc4)[nH]c32)o1 (stereo not drawn) 28.2 µM [inhibitor, single point], O=C1NC(=O)C(=Cc2ccco2)S1 35.5 µM [inhibitor, partial curve, poor fit], COc1cc2cc(Oc3ccc4ccc(=O)oc4c3)c(=O)oc2cc1O 63.1 µM [inhibitor, partial curve, poor fit], Cc1cccc(-c2nc3ccccc3n3c(-c4ccccc4)c4c(=O)n(C)c(=O)n(C)c4c23)c1 100 µM [inhibitor, partial curve, poor fit], OC1(c2cccnc2)CCN(Cc2nnnn2C2CCCCC2)CC1 31.6 µM [inhibitor, single point], Nc1ncc2c(n1)CC(c1ccco1)CC2=O (stereo not drawn) 22.4 µM [inhibitor, partial curve, poor fit], CSc1nc2ccc(NC(=O)c3c(-c4ccccc4)noc3C)cc2s1 79.4 µM [inhibitor, single point], CC#C[C@]1(O)CC[C@H]2C3CCC4=CC(=O)CCC4=C3[C@@H](c3ccc(N(C)C)cc3)C[C@@]21C (stereo partly drawn) 0.126 µM [inhibitor, full curve, poor fit], Cc1ccc(-c2cc(C(=O)NCc3cccs3)no2)cc1 112 µM [inhibitor, partial curve, poor fit], COc1ccc(-c2csc3nc[nH]c(=O)c23)cc1OC 63.1 µM [inhibitor, partial curve, poor fit], COC(=O)C(NS(=O)(=O)c1ccc(C)cc1)c1ccccc1 (stereo not drawn) 89.1 µM [inhibitor, single point]

activity, negative = inhibition, inactive:
Cc1ccc(-c2nc3cc(C(C)C)ccc3o2)cc1NC(=O)c1cc([N+](=O)[O-])ccc1N1CCOCC1 -9.86%, Cc1cc(/C=C2\SC(=O)N(CC(=O)Nc3ccccc3F)C2=O)c(C)n1C 104%, CCOC(=O)/C(=N/Nc1ccccc1)Sc1nnc(CCc2ccccc2)n1-c1ccccc1 51.6%, O=C(NCc1cccc(Cl)c1)C1CCCN(c2ncnc3onc(-c4ccc(F)cc4)c23)C1 (stereo not drawn) -1.87%, Cc1cccc(Cn2nnc3c(=O)[nH]c(C4CCN(C(=O)c5ccc(F)cc5)CC4)nc32)c1 -6.78%, Cc1nn(CC(=O)NCCCc2ccccc2)c(=O)c2cccn12 12%, O=C(COc1ccccc1[N+](=O)[O-])N/N=C/c1ccc(O)c([N+](=O)[O-])c1 6.73%, C[C@H](NC(=O)c1cc2c(cn1)[nH]c1ccccc12)C(=O)O 74.6%, Cc1oc2ccc(OCc3c(F)cccc3Cl)cc2c1C(=O)O 0.129%, CCN(CC)CCCNC(=O)C1c2cc(OC)c(OC)cc2C(=O)N(C)C1c1cccnc1 (stereo not drawn) -11.4%, CCc1ccccc1NC(=O)C(=O)NCCc1sc(-c2cccc(F)c2)nc1C 68.1%, O=C(c1ccc(Cl)cc1)N1CCCC(C(=O)N2CCc3ccccc3C2)C1 (stereo not drawn) -8.55% [at 58.9 µM], O=C(Nc1ccc(F)c(Cl)c1)N1CCC(CN2CCc3ccccc3C2)CC1 1.1%, Cn1c(SCC(=O)NC2CCS(=O)(=O)C2)nc2ccccc21 (stereo not drawn) 34.1%, C=CCOn1c(=O)c(-c2ccc(OCC)cc2)[n+]([O-])c2ccccc21 180%

— PubChem BioAssay AID588590 (National Center for Advancing Translational Sciences (NCATS), 2011)
